Reference: article PMC7892343
These are yes or no findings as the source states them, for the method shown. In cells and extracts the contact can be indirect. Some entries that bind do so weakly or less than the wild type. For some assays here: Tags and fused reporters may be left off the sequences shown. Each block holds one molecule with its values, some of them ahead of it.

Amino acid sequences for entries named in this document (tags omitted). A change or cut given only in a name is not applied to a line headed by its entry. Chains listed by the source or under a name are the forms on record and can include a tag or linker. Residues count along the entry.
Flag-PRMT1 catalytic domain (truncated mutant 32-343 aa) (Q99873, residues 50-361): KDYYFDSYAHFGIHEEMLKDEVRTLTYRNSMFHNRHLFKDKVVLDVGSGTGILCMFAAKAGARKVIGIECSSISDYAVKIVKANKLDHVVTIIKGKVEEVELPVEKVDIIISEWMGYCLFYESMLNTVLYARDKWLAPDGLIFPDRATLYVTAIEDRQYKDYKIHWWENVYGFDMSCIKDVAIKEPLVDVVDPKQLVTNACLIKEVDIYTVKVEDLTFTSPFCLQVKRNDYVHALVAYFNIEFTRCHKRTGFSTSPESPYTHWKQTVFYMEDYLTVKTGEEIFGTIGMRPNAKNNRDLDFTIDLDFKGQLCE
Flag-PRMT1 (protein arginine methyltransferase 1) (Q99873-3, form named): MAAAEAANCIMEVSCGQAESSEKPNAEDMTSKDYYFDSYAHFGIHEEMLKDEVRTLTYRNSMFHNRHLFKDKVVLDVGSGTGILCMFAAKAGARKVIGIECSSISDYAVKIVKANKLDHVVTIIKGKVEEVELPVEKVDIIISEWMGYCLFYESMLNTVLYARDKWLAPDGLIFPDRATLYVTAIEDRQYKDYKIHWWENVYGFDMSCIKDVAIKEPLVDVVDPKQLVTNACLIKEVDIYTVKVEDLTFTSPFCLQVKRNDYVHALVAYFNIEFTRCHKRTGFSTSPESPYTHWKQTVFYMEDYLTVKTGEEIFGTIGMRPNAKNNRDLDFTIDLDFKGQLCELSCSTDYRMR

How the values were obtained:
[1] = biological target: T1, NONO, endogenous in KM12 and HCT8 colorectal cancer cells (human (endogenous in KM12 and HCT8)) (UniProt Q15233); assay: proximity ligation; Duolink PLA on fixed KM12 and HCT8 cells with anti-NONO and anti-PRMT1 primary antibodies; blank without primary antibody; confocal microscopy
T1 sequence: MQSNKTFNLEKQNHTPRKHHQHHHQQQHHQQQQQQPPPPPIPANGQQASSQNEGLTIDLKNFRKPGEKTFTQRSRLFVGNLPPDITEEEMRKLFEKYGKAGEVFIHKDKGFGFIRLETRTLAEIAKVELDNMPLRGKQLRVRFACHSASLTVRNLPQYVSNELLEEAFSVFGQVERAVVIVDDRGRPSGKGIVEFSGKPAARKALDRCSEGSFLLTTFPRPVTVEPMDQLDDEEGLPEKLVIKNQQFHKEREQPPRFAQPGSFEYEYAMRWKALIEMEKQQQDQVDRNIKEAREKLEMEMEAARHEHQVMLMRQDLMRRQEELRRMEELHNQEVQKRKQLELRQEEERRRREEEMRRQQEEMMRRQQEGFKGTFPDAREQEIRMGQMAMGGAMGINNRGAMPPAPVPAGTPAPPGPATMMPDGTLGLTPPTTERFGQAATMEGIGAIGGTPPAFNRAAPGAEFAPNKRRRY

[2] = biological target: T1, NONO, endogenous in KM12 and HCT8 colorectal cancer cells (human (endogenous in KM12 and HCT8)); assay: co-IP; endogenous proteins, KM12 and HCT8 cell lysates (RIPA buffer); anti-NONO or anti-PRMT1 antibody or isotype-matched IgG overnight at 4 °C, Dynabeads Protein G; western blotting
[3] = biological target: T2, Myc-NONO (non-POU domain-containing octamer-binding protein) (human) (UniProt Q15233); assay: co-IP; HEK 293T cells cotransfected with Myc-NONO and Flag-PRMT1 (or Flag-PRMT1 truncations) for 24 h; RIPA lysis buffer (150 mM NaCl, 50 mM Tris-HCl pH 7.4, 1% Nonidet P-40, 1 mM EDTA); anti-Flag or anti-Myc magnetic beads, 2-4 h at 4 °C; western blotting
T2 sequence: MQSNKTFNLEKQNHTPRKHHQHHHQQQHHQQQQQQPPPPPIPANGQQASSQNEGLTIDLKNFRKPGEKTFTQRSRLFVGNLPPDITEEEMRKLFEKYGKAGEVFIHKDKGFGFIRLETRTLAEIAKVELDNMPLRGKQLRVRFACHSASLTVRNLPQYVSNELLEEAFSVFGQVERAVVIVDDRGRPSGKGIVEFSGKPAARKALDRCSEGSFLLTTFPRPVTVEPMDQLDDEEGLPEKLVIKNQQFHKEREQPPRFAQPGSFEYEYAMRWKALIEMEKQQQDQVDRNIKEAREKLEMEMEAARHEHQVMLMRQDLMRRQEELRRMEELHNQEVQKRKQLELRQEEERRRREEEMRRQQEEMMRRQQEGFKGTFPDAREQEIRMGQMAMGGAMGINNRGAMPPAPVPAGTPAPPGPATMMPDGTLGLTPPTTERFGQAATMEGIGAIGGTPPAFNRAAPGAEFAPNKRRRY

[4] = biological target: Flag-PRMT1 (protein arginine methyltransferase 1) (human) (UniProt Q99873); assay: as above
[5] = biological target: Flag-PRMT1 catalytic domain (truncated mutant 32-343 aa) (human) (UniProt Q99873); assay: as above

binding [1]: binds
binding [2]: binds
Molecule: PRMT1, endogenous in KM12 and HCT8 colorectal cancer cells (from UniProt Q99873-3 1-353) (enzyme)

binding [3]: binds
Molecule: Flag-PRMT1 (protein arginine methyltransferase 1) (from UniProt Q99873-3 1-353) (enzyme)

binding [4]: binds
binding [5]: binds
B1: Myc-NONO (non-POU domain-containing octamer-binding protein) (protein, UniProt Q15233 1-471)
chain: MQSNKTFNLEKQNHTPRKHHQHHHQQQHHQQQQQQPPPPPIPANGQQASSQNEGLTIDLKNFRKPGEKTFTQRSRLFVGNLPPDITEEEMRKLFEKYGKAGEVFIHKDKGFGFIRLETRTLAEIAKVELDNMPLRGKQLRVRFACHSASLTVRNLPQYVSNELLEEAFSVFGQVERAVVIVDDRGRPSGKGIVEFSGKPAARKALDRCSEGSFLLTTFPRPVTVEPMDQLDDEEGLPEKLVIKNQQFHKEREQPPRFAQPGSFEYEYAMRWKALIEMEKQQQDQVDRNIKEAREKLEMEMEAARHEHQVMLMRQDLMRRQEELRRMEELHNQEVQKRKQLELRQEEERRRREEEMRRQQEEMMRRQQEGFKGTFPDAREQEIRMGQMAMGGAMGINNRGAMPPAPVPAGTPAPPGPATMMPDGTLGLTPPTTERFGQAATMEGIGAIGGTPPAFNRAAPGAEFAPNKRRRY
